## Results of single-concentration screens

Results are given as percent effect. The record does not define 0% and 100%; most values in the screen are far below 50% and negative numbers occur (in some assays of this library far below -100). This is an unselected part of the compounds tested. Two or more numbers in one place are separate tests of the same structure; such repeats can differ widely.

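Cell assay of Leishmania donovani living inside macrophages; the read-out is not stated. Concentration: 30 µM. The record gives no direction; compounds that gave an IC50 in retests scored well above the rest, so higher reads as stronger inhibition. About 69,000 compounds were tested under these conditions; 1.5% (about 1,000) showed 50% or more at least once.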

SMILES | percent effect
CN1C(=O)CC(C(=O)O)C12CCN(Cc1cc(F)ccc1Cl)CC2 (centres unmarked) | -1.851
O=C(c1ccc[nH]1)N1CCCC1c1nc(-c2ccccc2)n[nH]1 (centres unmarked) | -0.3841
Cc1ccc(CN2CCC3(C2)C(=O)N(CC(C)C)c2ccccc23)s1 (centres unmarked) | 31.9
O=C(CN1CCc2ccccc2C1)NCc1ccco1 | -24.88
Cn1ccc(C(=O)N2CCN(c3nccs3)CC2)cc1=O | 7.808
Cc1nc(CN2CCC3(CCCO3)CCC2=O)no1 (centres unmarked) | 19.95
CC1(C)OCC(CNC(=O)c2cnn(-c3cc(Cl)ccc3Cl)c2N)O1 (centres unmarked) | -0.5043
O=C(O)C(F)(F)F.[H][C@@]12COC[C@]1(CN1CCOCC1)CN(S(=O)(=O)c1ccccc1)C2 | -12.29
O=C(COC1CCCCC1)Nc1ccn(CCc2ccncc2)n1 | 5.765
COc1ccc(CN(C(=O)C(C)SC)c2cnn(C)c2)c(OC)c1 (centres unmarked) | 12.14
Cc1ccc(S(=O)(=O)c2ncccc2CN2CCN(CCO)CC2)cc1 | -13.17
CC(=O)N1Cc2ccccc2CC1C(=O)Nc1ccc(C)cn1 (centres unmarked) | -13.14
CCC[C@@H]1CN(Cc2ccccc2-c2ccco2)C[C@H]1NC(C)=O | 14.54
CC(C)(N)C(=O)N1CCC(c2nccnc2Oc2cccc(F)c2)CC1 | -1.907 & 14.46
O=C1N(CCC2CCCCC2)CCCC1(O)CNCCc1ccccc1 (centres unmarked) | 74.42
CCc1nc(C2CCCN(C(=O)c3cnn(CC)c3)C2)no1 (centres unmarked) | -11.12
CN(CC(F)(F)F)C(=O)CNC(=O)Cc1cccc(O)c1 | 2.484
Cc1cnn(CCNCc2nc(CNC(=O)c3ccccc3)no2)c1 | -7.615
Cc1ccc(CN2CCc3c(COCC4CC4)nn(C)c3C2)s1.O=C(O)C(F)(F)F | 25.61
CCN1CCCC(c2cc(Nc3cnccn3)nc(C)n2)C1 (centres unmarked) | 34.33
Cl.c1cc(OCc2ccc3c(c2)OCO3)ccc1CNC1CC1 | 25
[H][C@]12CCN(C(=O)NCCc3ccccc3)CC[C@@]1([H])S(=O)(=O)NC2 | 1.398 & -56.42
O=C(O)C(F)(F)F.[H][C@]12CN(CCOC)C[C@@]1(C(=O)O)CCCN(c1cc(OC)ncn1)C2 | 2.938 & -3.005
COc1cccc(C2C3=C(COC3=O)Nc3[nH]nc(C)c32)c1O (centres unmarked) | 13.19
COC(=O)N1CCC(CNC(=O)C2CCN(S(C)(=O)=O)CC2)CC1 | 16.35
O=C(CC1CN(Cc2ccccc2)CCO1)Nc1ccsc1 (centres unmarked) | 26.23
O=C(Nc1ccc(F)cc1)C1CSCN1 (centres unmarked) | 3.442
O=C(O)C(F)(F)F.[H][C@@]12CN(CC)C[C@]1([H])[C@H](OC)CCN2S(=O)(=O)c1ccccc1F | 1.109
Cc1ccc(CN(CCN(C)C)Cc2ncc[nH]2)s1 | 25.25
Cc1cnn(C2CN(CCOc3cccc(C#N)c3)C2)c1 | 0.4339
CSCC(=O)NCc1cc(Br)ccc1OC(F)F | 10.17
CCC(NCc1ccccn1)c1ccccc1OCC(=O)NC (centres unmarked) | 13.54
CC1(C)CN(CCC(=O)NCc2cccc(Cl)c2)CC[C@]1(C)O | 32.62
CN(C)C(=O)CSc1nnc(CCNC(=O)OC(C)(C)C)o1 | -17.84
O=C(c1cccnc1Oc1ccccc1)N1CCCn2ncnc21 | -2.606
Cc1n[nH]c(C)c1CCC(=O)NCC1COc2ccccc2C1 (centres unmarked) | 24.55
O=C(CC1CCN(c2ncnc3cccc(F)c23)CC1)N1CCCC1 | 17.23
CS(=O)(=O)Cc1nc(CN2CCc3ccccc3CC2)cs1 | -8.189
CCN(C(=O)CN1CCCC1c1cc(C)no1)c1ccccc1C (centres unmarked) | -8.554
Cn1cnnc1CC1CCN(Cc2c(Cl)cncc2Cl)CC1 | -22.98
O=C(c1cc(=O)n(-c2ccccc2)[nH]1)N1CCOCC(O)C1 (centres unmarked) | 33.69
[H][C@@]12C[C@H](C)O[C@@]1([H])CCN(C(=O)COCC)C2 | 33.1
CC(=O)NC1CCCN(C(=O)NCc2cccnc2N(C)C)C1 (centres unmarked) | 14.02
CCC(CC)C(=O)N1CCC2(C1)CN(c1ccccc1)C(=O)CN2C.O=C(O)C(F)(F)F (centres unmarked) | 6.642
[H][C@@]12C[C@@H](O)CN1C[C@@H](Cc1ccccc1)N(CC1CCCCC1)C2 | -22.28
C=C(C)COc1cccc(C(=O)N(CC)Cc2noc(C)n2)c1 | 17.93
CNc1cc(C)nc(C2CN(Cc3cncs3)CCO2)c1 (centres unmarked) | 20.11
CN(C)Cc1cn(-c2ccccc2C(=O)NCCC2CCCN2C)cn1 (centres unmarked) | -43.11
CC(C)c1cc(C(=O)N2CCCC(Cn3cc(CO)nn3)C2)on1 (centres unmarked) | 21.39
O=C1NCC2(CCCN(C(=O)Cn3nc4ccccc4n3)CC2)O1 (centres unmarked) | -18.26
COCC[C@]1(O)CCN(C(=O)CCc2cnn(C)c2)C[C@H]1C | 25.63
CCn1cc(CN2CCC(O)(Cn3nc(C)ccc3=O)CC2)cn1 | 3.47
C[C@@H]1CN(C2CCN(Cc3cnc(-c4cccs4)nc3)CC2)C[C@H](C)O1 | 7.55
O=C(O)C(F)(F)F.[H][C@@]12CN(CCOC)CCO[C@]1([H])CN(C(=O)COc1ccc(C)cc1)C2 | 14.42
O=C(O)C(F)(F)F.O=C(O)C(F)(F)F.O=C(O)C(F)(F)F.[H][C@@]12CN(Cc3nccs3)C[C@H](C(=O)Nc3cccnc3)[C@]1([H])CCO2 | -10.11
O=C(c1ccoc1)N1CCn2cnc(COCC3CC3)c2C1 | 40.52
CC(C)Cc1cc(C(=O)N2CCCN(c3ncccn3)CC2)[nH]n1 | 1.414
O=S(=O)(Cc1ccccc1CN1CCOCC(O)C1)c1ccccc1 (centres unmarked) | 1.032
COc1ccccc1OCc1nc2cc3c(cc2c(=O)o1)OCCCO3 | 23.81
CC(C)(C)CC(=O)NCCCn1cncn1 | -5.514
CCOCCCNC(=O)N(C)Cc1ccc(SC)c(OC)c1 | -17.78
O=C(O)C(F)(F)F.O=C(O)C(F)(F)F.c1ccc(COC[C@@H]2CCC[C@]23CN(Cc2nccs2)CCO3)nc1 | 16.82
O=C(Cc1csc(Cc2ccccn2)n1)NCCCN1CCCC1=O | -80.39
CC(=O)N1CCC(c2ccnc(Nc3cncnc3)n2)CC1 | 19.54
CNC(=O)c1cccc(C2CNCCN2C(C)=O)c1 (centres unmarked) | -20.49
CCCc1cc(C(=O)N2CCC3(CCCNC3=O)C2)cs1 (centres unmarked) | 6.322
COCCCNC(=O)C(C)n1cc(Br)cn1 (centres unmarked) | -22.37
CNS(=O)(=O)c1ccc(CNC(=O)N(CC(C)C)C(C)C)cc1 | -6.25
O=C(O)C(F)(F)F.[H][C@]12CCN(S(=O)(=O)CC)CC[C@@]1([H])S(=O)(=O)CCN2Cc1cccc(C)n1 | 14.01 & 28.42
[H][C@]12CCN(C(=O)NC)CC[C@@]1([H])S(=O)(=O)N(Cc1cccc(OC)c1)C2 | 61.69
CCN(Cc1c(F)cccc1F)Cn1nc(C)c2c(C)onc2c1=O | -13.88
CNC(=O)c1ccc2c(c1)C1(CCN(CCOC)CC1)C(=O)N2.O=C(O)C(F)(F)F | 4.223
CC(=O)NCC(=O)N1CCc2c(CNc3ncccn3)cncc2C1.Cl | 19.67
COCCN1C[C@@H](C)[C@@]2(COCCN(C(=O)Cc3ccccc3)C2)C1.O=C(O)C(F)(F)F | 19.96
CN1C(=O)C2(CCN(C(=O)c3ccccc3)CC2)c2cccc(F)c21.Cl | 26.96 & -3.385
CC(C)(C)c1cn2nc(N3CCOC(Cn4cncn4)C3)sc2n1 (centres unmarked) | 8.747
Cc1nn(C)c(C)c1OCC(=O)NCC(O)c1ccccc1F (centres unmarked) | 11.88
CN(Cc1noc(C2CC2)n1)C1CCN(CCc2cccs2)C1 (centres unmarked) | 13.4
CN1CCN(Cc2cccc(NCc3cc[nH]n3)c2)CC1 | 25.75
CC1CCc2n[nH]c(C(=O)NCCc3ccco3)c2C1 (centres unmarked) | -18.04
Cc1nnc2n1CCN(C(=O)c1cn(-c3ccc(F)cc3)nn1)C2 | -9.084
Cc1cc(CN(C)C(=O)c2ccc(OCC(F)(F)F)nc2)no1 | 15.33
COc1cc(C#N)ccc1OCC(=O)NS(=O)(=O)c1ccccc1 | 33.49
NC(=O)c1cncc(-n2ccc(-c3cnccn3)n2)c1 | 18.61
CN(C)c1ncccc1CNS(=O)(=O)c1ccc(F)c(F)c1 | 32.33
CN(C)C(=O)C1CCN(C(=O)c2c[nH]c3cc(Cl)ccc23)CC1 | 14.93
CCc1noc(CC)c1CC(=O)N1CCN(C(C#N)C(C)C)CC1 (centres unmarked) | 28.03
COc1cccc(-c2cc(C(=O)NCCCn3cnnc3)[nH]n2)c1 | 50.06

The first 6 entries again:

SMILES,percent effect
CN1C(=O)CC(C(=O)O)C12CCN(Cc1cc(F)ccc1Cl)CC2 (centres unmarked),-1.851
O=C(c1ccc[nH]1)N1CCCC1c1nc(-c2ccccc2)n[nH]1 (centres unmarked),-0.3841
Cc1ccc(CN2CCC3(C2)C(=O)N(CC(C)C)c2ccccc23)s1 (centres unmarked),31.9
O=C(CN1CCc2ccccc2C1)NCc1ccco1,-24.88
Cn1ccc(C(=O)N2CCN(c3nccs3)CC2)cc1=O,7.808
Cc1nc(CN2CCC3(CCCO3)CCC2=O)no1 (centres unmarked),19.95

From ChEMBL document CHEMBL3988442, “University of Dundee, Small-Polar-MMV Screening Library” (2021).